Assay results reported in the supplement of paper PMC4604168 (melanoma cell lines).
Some of the results follow. Many values rest on one well or one pass, so single values are uncertain.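 Cells were imaged in 1,536-well plates, and nuclei stained with an antibody against cleaved PARP were counted against all DNA-stained nuclei to give the apoptosis fraction. Screening doses were chosen to leave most cells alive, and resting and induced cleaved-PARP levels differ strongly between cell lines.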

test system: IPC-298; assay: cleaved PARP positive nuclei fraction relative to DMSO control; melanoma cells; higher = more apoptosis; conditions: library dose: low library concentration; 72 h

Q: For `Nc1ccn([C@@H]2O[C@H](CO)[C@@H](O)C2(F)F)c(=O)n1` [gemcitabine] + O=S(=O)(c1ccccc1)N(CC(F)(F)F)c1ccc(C(O)(C(F)(F)F)C(F)(F)F)cc1 [T0901317] (first compound 0.0004 µM, partner dose 1.4 µM), which “cleaved PARP positive nuclei fraction” value is on record?
A: 150%

Q: Which “cleaved PARP positive nuclei fraction” value does the source give for `Nc1ncn([C@H]2C[C@H](O)[C@@H](CO)O2)c(=O)n1` [decitabine] + O=C(Nc1ccccc1)c1cc([N+](=O)[O-])ccc1Cl [GW9662] (first compound 0.1 µM, partner dose 2 µM) here?
A: 182%

Q: `Nc1nc(F)nc2c1ncn2[C@@H]1O[C@H](CO)[C@@H](O)[C@@H]1O` [fludarabine] + Cn1cc(/C=C2\C(=O)Nc3cccnc32)c2ccccc21 [GW441756] (first compound 0.2 µM, partner dose 0.4 µM) was tested. Which “cleaved PARP positive nuclei fraction” value did it give?
A: 118%

Q: For `Nc1ccn([C@@H]2O[C@H](CO)[C@@H](O)C2(F)F)c(=O)n1` [gemcitabine] + CCN(CC)CCCCNc1ncc2cc(-c3cc(OC)cc(OC)c3)c(NC(=O)NC(C)(C)C)nc2n1 [PD173074] (first compound 0.0004 µM, partner dose 0.1 µM), which “cleaved PARP positive nuclei fraction” value is on record?
A: 306%

Q: How did the “cleaved PARP positive nuclei fraction” value turn out when `CCCS(=O)(=O)Nc1ccc(F)c(C(=O)c2c[nH]c3ncc(Cl)cc23)c1F` + COc1ccc(COc2ccc(Cc3cnc(N)nc3N)cc2OC)cc1 [GW2580] (first compound 0.08 µM, partner dose 1 µM) was run?
A: 50.3%

Q: How did the “cleaved PARP positive nuclei fraction” value turn out when `Nc1ccn([C@@H]2O[C@H](CO)[C@@H](O)C2(F)F)c(=O)n1` [gemcitabine] + CCc1ccc(CCOc2ccc(CC3SC(=O)NC3=O)cc2)nc1 [pioglitazone] (first compound 0.0004 µM, partner dose 2 µM) was run?
A: 198%

Q: Which “cleaved PARP positive nuclei fraction” value does the source give for `Nc1ncn([C@H]2C[C@H](O)[C@@H](CO)O2)c(=O)n1` [decitabine] + Oc1cc(-c2nc(-c3ccccc3)[nH]c2-c2ccncc2)ccc1Cl [L779450] (first compound 0.1 µM, partner dose 0.2 µM) here?
A: 150%

Q: For `CNC(=O)c1cc(Oc2ccc(NC(=O)Nc3ccc(Cl)c(C(F)(F)F)c3)cc2)ccn1` [sorafenib] + Cc1cc([N+](=O)[O-])ccc1NS(=O)(=O)c1cc(Cl)ccc1Cl [FH535] (first compound 0.4 µM, partner dose 1 µM), which “cleaved PARP positive nuclei fraction” value is on record?
A: 167%

Q: Which “cleaved PARP positive nuclei fraction” value does the source give for `O=C(O)c1ccc2c(c1)nc(Nc1cccc(Cl)c1)c1ccncc12` + N#Cc1c(O)c2c(-c3ccc(-c4ccccc4O)cc3)csc2[nH]c1=O [A769662] (first compound 0.4 µM, partner dose 2 µM) here?
A: 44.1%

Q: `Nc1ccn([C@@H]2O[C@H](CO)[C@@H](O)C2(F)F)c(=O)n1` [gemcitabine] + COc1ccc(COc2ccc(Cc3cnc(N)nc3N)cc2OC)cc1 [GW2580] (first compound 0.0004 µM, partner dose 1 µM) was tested. Which “cleaved PARP positive nuclei fraction” value did it give?
A: 87.9%

Q: `Nc1ncn([C@H]2C[C@H](O)[C@@H](CO)O2)c(=O)n1` [decitabine] + O=C1NC(=O)/C(=C/c2ccc(-c3ccc(F)cc3O)o2)S1 [AS252424] (first compound 0.1 µM, partner dose 1 µM) was tested. Which “cleaved PARP positive nuclei fraction” value did it give?
A: 70.8%

Q: Which “cleaved PARP positive nuclei fraction” value does the source give for `CCCS(=O)(=O)Nc1ccc(F)c(C(=O)c2c[nH]c3ncc(Cl)cc23)c1F` + Cn1cc(/C=C2\C(=O)Nc3cccnc32)c2ccccc21 [GW441756] (first compound 0.08 µM, partner dose 0.4 µM) here?
A: 46.6%

Q: Which “cleaved PARP positive nuclei fraction” value does the source give for `Cc1cc(Nc2cc(N3CCN(C)CC3)nc(/C=C/c3ccccc3)n2)n[nH]1` + O=c1cc(-c2cccc3c2Sc2ccccc2S3)oc(N2CCOCC2)c1 [KU55933] (first compound 0.04 µM, partner dose 1 µM) here?
A: 48%

Q: How did the “cleaved PARP positive nuclei fraction” value turn out when `Cn1c(=O)n(-c2ccc(C(C)(C)C#N)cc2)c2c3cc(-c4cnc5ccccc5c4)ccc3ncc21` + COc1cc2ncnc(Nc3ccc(Oc4ccccc4)cc3)c2cc1OC [SrcI1] (first compound 0.004 µM, partner dose 2 µM) was run?
A: 128%

Q: Which “cleaved PARP positive nuclei fraction” value does the source give for `Cc1cc(Nc2cc(N3CCN(C)CC3)nc(/C=C/c3ccccc3)n2)n[nH]1` + O=S(=O)(c1ccccc1)N(CC(F)(F)F)c1ccc(C(O)(C(F)(F)F)C(F)(F)F)cc1 [T0901317] (first compound 0.04 µM, partner dose 1.4 µM) here?
A: 134%

Q: How did the “cleaved PARP positive nuclei fraction” value turn out when `CCCS(=O)(=O)Nc1ccc(F)c(C(=O)c2c[nH]c3ncc(Cl)cc23)c1F` + O=C1NC(=O)/C(=C/c2ccc(-c3ccc(F)cc3O)o2)S1 [AS252424] (first compound 0.08 µM, partner dose 1 µM) was run?
A: 133%

Q: For `Cn1c(=O)n(-c2ccc(C(C)(C)C#N)cc2)c2c3cc(-c4cnc5ccccc5c4)ccc3ncc21` + CC(C)CCN1c2nc(Nc3cc(F)c(O)c(F)c3)ncc2N(C)C(=O)C1C [BID1870] (first compound 0.004 µM, partner dose 0.2 µM), which “cleaved PARP positive nuclei fraction” value is on record?
A: 48.4%

Q: For `CN1CCN(c2ccc3nc(-c4c(N)c5c(F)cccc5[nH]c4=O)[nH]c3c2)CC1` [Dovitinib] + Oc1cc(-c2nc(-c3ccccc3)[nH]c2-c2ccncc2)ccc1Cl [L779450] (first compound 0.1 µM, partner dose 0.2 µM), which “cleaved PARP positive nuclei fraction” value is on record?
A: 105%

Q: `Nc1nc(F)nc2c1ncn2[C@@H]1O[C@H](CO)[C@@H](O)[C@@H]1O` [fludarabine] + COc1cc(N2CCC(N3CCN(C)CC3)CC2)ccc1Nc1ncc(Cl)c(Nc2ccccc2S(=O)(=O)C(C)C)n1 [NVP-TAE684] (first compound 0.2 µM, partner dose 0.08 µM) was tested. Which “cleaved PARP positive nuclei fraction” value did it give?
A: 62%

Q: With `Nc1ncn([C@H]2C[C@H](O)[C@@H](CO)O2)c(=O)n1` [decitabine] + COc1ccc(-c2ccc3c(N4CCOCC4)nc(N4C[C@@H](C)O[C@@H](C)C4)nc3n2)cc1CO [KU0063794] (first compound 0.1 µM, partner dose 0.02 µM) as the compound, how does the “cleaved PARP positive nuclei fraction” value read?
A: 106%

Q: How did the “cleaved PARP positive nuclei fraction” value turn out when `CCCS(=O)(=O)Nc1ccc(F)c(C(=O)c2c[nH]c3ncc(Cl)cc23)c1F` + Oc1cc(-c2nc(-c3ccccc3)[nH]c2-c2ccncc2)ccc1Cl [L779450] (first compound 0.08 µM, partner dose 0.2 µM) was run?
A: 55.7%

Q: For `C=C(c1ccc(C(=O)O)cc1)c1cc2c(cc1C)C(C)(C)CCC2(C)C` [Bexarotene] + CCCCCCCCCCCC1=C(O)C(=O)C=C(O)C1=O [Embelin] (first compound 2 µM, partner dose 1.2 µM), which “cleaved PARP positive nuclei fraction” value is on record?
A: 92.6%

Q: For `O=C(O)c1ccc2c(c1)nc(Nc1cccc(Cl)c1)c1ccncc12` + Oc1nc(-c2ccc(C(F)(F)F)cc2)nc2c1CSCC2 [XAV939] (first compound 0.4 µM, partner dose 2 µM), which “cleaved PARP positive nuclei fraction” value is on record?
A: 31.5%

Q: For `C=C(c1ccc(C(=O)O)cc1)c1cc2c(cc1C)C(C)(C)CCC2(C)C` [Bexarotene] + COC(=O)c1sccc1S(=O)(=O)Nc1ccc(Nc2ccccc2)cc1OC [GSK0660] (first compound 2 µM, partner dose 1 µM), which “cleaved PARP positive nuclei fraction” value is on record?
A: 121%

Q: How did the “cleaved PARP positive nuclei fraction” value turn out when `Nc1nc(F)nc2c1ncn2[C@@H]1O[C@H](CO)[C@@H](O)[C@@H]1O` [fludarabine] + COc1ccc2c(c1)CCC1C2CCC2(C)C(NCCCCCCN3C(=O)C=CC3=O)CCC12 [U73122] (first compound 0.2 µM, partner dose 0.4 µM) was run?
A: 166%

Q: For `O=C(O)[C@@H]1[O][Sb](=[O])([O][Sb]2(=[O])[O][C@H]([C@H](O)CO)[C@H](O)[C@H](C(=O)O)[O]2)[O][C@H]([C@H](O)CO)[C@@H]1O` (some centres not stated) [stibogluconate] + O=C(O)C(=O)Nc1sc2c(c1C(=O)O)CCNC2 [TCS401] (first compound 2 µM, partner dose 1.66667 µM), which “cleaved PARP positive nuclei fraction” value is on record?
A: 143%

Q: Which “cleaved PARP positive nuclei fraction” value does the source give for `C=C(c1ccc(C(=O)O)cc1)c1cc2c(cc1C)C(C)(C)CCC2(C)C` [Bexarotene] + Cc1cc([N+](=O)[O-])ccc1NS(=O)(=O)c1cc(Cl)ccc1Cl [FH535] (first compound 2 µM, partner dose 1 µM) here?
A: 53.4%

Q: How did the “cleaved PARP positive nuclei fraction” value turn out when `C=C(c1ccc(C(=O)O)cc1)c1cc2c(cc1C)C(C)(C)CCC2(C)C` [Bexarotene] + COc1ccc(COc2ccc(Cc3cnc(N)nc3N)cc2OC)cc1 [GW2580] (first compound 2 µM, partner dose 1 µM) was run?
A: 127%

Q: `Nc1nc(F)nc2c1ncn2[C@@H]1O[C@H](CO)[C@@H](O)[C@@H]1O` [fludarabine] + O=C(Nc1ccccc1)c1cc([N+](=O)[O-])ccc1Cl [GW9662] (first compound 0.2 µM, partner dose 2 µM) was tested. Which “cleaved PARP positive nuclei fraction” value did it give?
A: 152%

Q: `CC(C)C[C@H](NC(=O)[C@H](Cc1ccccc1)NC(=O)c1cnccn1)B(O)O` [Bortezomib] + COC(=O)c1sccc1S(=O)(=O)Nc1ccc(Nc2ccccc2)cc1OC [GSK0660] (first compound 0.001 µM, partner dose 1 µM) was tested. Which “cleaved PARP positive nuclei fraction” value did it give?
A: 238%

Q: With `CN1CCN(c2ccc3nc(-c4c(N)c5c(F)cccc5[nH]c4=O)[nH]c3c2)CC1` [Dovitinib] + COc1ccc(COc2ccc(Cc3cnc(N)nc3N)cc2OC)cc1 [GW2580] (first compound 0.1 µM, partner dose 1 µM) as the compound, how does the “cleaved PARP positive nuclei fraction” value read?
A: 46.6%

Q: `Cn1c(=O)n(-c2ccc(C(C)(C)C#N)cc2)c2c3cc(-c4cnc5ccccc5c4)ccc3ncc21` + Cc1cc([N+](=O)[O-])ccc1NS(=O)(=O)c1cc(Cl)ccc1Cl [FH535] (first compound 0.004 µM, partner dose 1 µM) was tested. Which “cleaved PARP positive nuclei fraction” value did it give?
A: 195%
